{"sequences": {"note": "The chains behind the UniProt entries cited, without tags or fusion partners. A line that says so, or that is headed by a name, gives the form on record, which may keep a tag or linker. Residues count along the entry.", "UniProt Q99873, 1-371 with tags or gaps": "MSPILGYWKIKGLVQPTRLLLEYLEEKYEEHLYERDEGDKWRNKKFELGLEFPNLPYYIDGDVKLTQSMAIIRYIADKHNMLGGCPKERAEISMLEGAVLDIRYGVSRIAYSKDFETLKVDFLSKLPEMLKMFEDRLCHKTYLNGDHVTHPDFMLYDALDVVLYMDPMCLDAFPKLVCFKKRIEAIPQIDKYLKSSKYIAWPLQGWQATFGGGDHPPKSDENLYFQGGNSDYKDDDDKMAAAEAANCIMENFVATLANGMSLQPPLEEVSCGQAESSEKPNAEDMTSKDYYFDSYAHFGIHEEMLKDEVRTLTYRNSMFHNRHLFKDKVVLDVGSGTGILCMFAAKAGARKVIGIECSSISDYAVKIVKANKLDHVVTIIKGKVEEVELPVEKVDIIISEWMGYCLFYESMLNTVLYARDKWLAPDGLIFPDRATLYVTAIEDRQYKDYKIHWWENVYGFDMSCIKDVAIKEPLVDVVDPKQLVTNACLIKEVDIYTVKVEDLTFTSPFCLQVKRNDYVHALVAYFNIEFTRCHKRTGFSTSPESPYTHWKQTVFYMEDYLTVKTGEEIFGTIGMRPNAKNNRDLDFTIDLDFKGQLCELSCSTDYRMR"}, "source": "patent US20170291905A1", "about": "“ARGININE METHYLTRANSFERASE INHIBITORS AND USES THEREOF” (Epizyme, Inc., priority 2014, published 2017)", "biological_target": "full-length human PRMT1 isoform 1 (GST-tagged) (Homo sapiens, UniProt Q99873)", "test": "PRMT1 biochemical assay (3H-SAM Flashplate, histone H4 36-50 peptide)", "conditions": "read-out: PRMT1 IC50; 0.5 nM PRMT1, 30 min preincubation, 20 nM peptide", "description": "S-adenosylmethionine (SAM), S-adenosylhomocysteine (SAH), bicine, Tween20, dimethylsulfoxide (DMSO), bovine skin gelatin (BSG), and Tris(2-carboxyethyl)phosphine hydrochloride solution (TCEP) were purchased from Sigma-Aldrich at the highest level of purity possible. ^3H-SAM was purchase from American Radiolabeled Chemicals with a specific activity of 80 Ci/mmol. 384-well streptavidin Flashplates were purchased from PerkinElmer.\nPeptide representative of human histone H4 residues 36-50 was synthesized with an N-terminal linker-affinity tag motif and a C-terminal amide cap by 21st Century Biochemicals. The peptide was purified by high-performance liquid chromatography (HPLC) to greater than 95% purity and confirmed by liquid chromatography mass spectrometry (LC-MS). The sequence was Biot-Ahx-RLARRGGVKRISGLI-amide (SEQ ID NO.:1).\nFull-length human PRMT1 isoform 1 (NM_001536.5) transcript clone was amplified from an HEK 293 cDNA library, incorporating flanking 5′ sequence encoding a FLAG tag (DYKDDDDK) (SEQ ID NO.:2) fused directly to Met 1 of PRMT1. The amplified gene was subcloned into pFastBacI (Life Technologies) modified to encode an N-terminal GST tag and a TEV cleavage sequence\nRecombinant baculovirus were generated according to Bac-to-Bac kit instructions (Life Technologies). […]", "note": "The structures given here were assigned with low confidence; some may be wrong.", "data": [{"molecule": "CNCCN(C)Cc1ncsc1[C@H]1CC[C@@]2(CC1)CC(C)(C)CO2", "note": "[compound 83]", "values": [{"measurement": "IC50", "value": 8.48, "unit": "nM"}]}]}
